For this assay, the target named is Acyl-CoA Synthetase Long-chain Family Member 4 (ACSL4) (mouse (endogenous in BV2)) (UniProt Q9QUJ7). As to the kind of experiment: co-IP; BV2 cells lysed in RIPA buffer, lysate at 1 mg/ml, pre-cleared, primary antibody overnight at 4°C, agarose beads, washed with RIPA + 0.1% Triton X-100, blotted; cells treated with LPS (1 μg/ml, 12 h) with or without siHK2 or siISG15 (24 h); which protein was precipitated is not told.

Sequences of proteins named here, by UniProt entry; tags and fusion partners are left off. Residues count along the entry.
UniProt Q9QUJ7: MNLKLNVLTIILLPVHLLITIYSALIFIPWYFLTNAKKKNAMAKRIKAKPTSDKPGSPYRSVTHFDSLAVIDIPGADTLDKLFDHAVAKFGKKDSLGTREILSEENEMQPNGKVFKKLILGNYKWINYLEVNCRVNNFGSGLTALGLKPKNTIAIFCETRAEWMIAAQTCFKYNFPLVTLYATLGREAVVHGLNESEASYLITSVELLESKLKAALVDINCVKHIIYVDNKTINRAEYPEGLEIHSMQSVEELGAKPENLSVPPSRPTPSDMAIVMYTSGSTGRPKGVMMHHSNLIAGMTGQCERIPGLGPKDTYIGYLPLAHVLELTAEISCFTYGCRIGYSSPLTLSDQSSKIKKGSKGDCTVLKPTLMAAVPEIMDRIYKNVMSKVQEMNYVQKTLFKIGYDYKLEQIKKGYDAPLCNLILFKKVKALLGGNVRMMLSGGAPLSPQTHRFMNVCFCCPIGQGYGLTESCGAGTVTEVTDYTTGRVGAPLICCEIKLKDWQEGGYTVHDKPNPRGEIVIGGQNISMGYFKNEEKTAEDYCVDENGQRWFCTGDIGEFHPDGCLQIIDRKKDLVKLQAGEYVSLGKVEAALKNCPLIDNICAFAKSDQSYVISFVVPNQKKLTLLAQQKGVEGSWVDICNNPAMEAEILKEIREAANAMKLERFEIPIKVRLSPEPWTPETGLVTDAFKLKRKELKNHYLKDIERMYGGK
UniProt Q64339, residues 1-155: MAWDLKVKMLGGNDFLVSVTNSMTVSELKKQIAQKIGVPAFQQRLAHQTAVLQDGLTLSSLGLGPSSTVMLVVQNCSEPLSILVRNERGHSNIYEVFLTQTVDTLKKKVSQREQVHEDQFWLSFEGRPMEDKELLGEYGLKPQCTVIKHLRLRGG

Results are given in words; binding and its absence hold for the method and conditions named. Binding seen in cells or lysates may run through a third protein. Some binding calls cover weakened binding; strength is not graded here.

Regarding “interferon-stimulated gene 15 (ISG15) (from UniProt Q64339 1-155)”, the binding result is “binds”.

Source of the values: article PMC12018552.
